From article PMC2788414 come the findings set out here.

The chains behind the UniProt entries cited, without tags or fusion partners.
UniProt P84022: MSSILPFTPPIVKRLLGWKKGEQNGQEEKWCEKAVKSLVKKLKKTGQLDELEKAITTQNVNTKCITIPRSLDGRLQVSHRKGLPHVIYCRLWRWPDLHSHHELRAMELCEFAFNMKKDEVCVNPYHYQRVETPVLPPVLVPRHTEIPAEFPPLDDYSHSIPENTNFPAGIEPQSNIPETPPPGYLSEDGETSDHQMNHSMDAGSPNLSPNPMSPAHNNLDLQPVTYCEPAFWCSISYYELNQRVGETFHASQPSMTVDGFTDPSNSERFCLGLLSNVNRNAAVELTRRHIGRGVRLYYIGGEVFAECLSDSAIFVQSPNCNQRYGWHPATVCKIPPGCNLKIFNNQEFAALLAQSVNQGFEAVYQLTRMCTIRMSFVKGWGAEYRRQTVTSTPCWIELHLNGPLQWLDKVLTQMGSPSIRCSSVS
UniProt P48432: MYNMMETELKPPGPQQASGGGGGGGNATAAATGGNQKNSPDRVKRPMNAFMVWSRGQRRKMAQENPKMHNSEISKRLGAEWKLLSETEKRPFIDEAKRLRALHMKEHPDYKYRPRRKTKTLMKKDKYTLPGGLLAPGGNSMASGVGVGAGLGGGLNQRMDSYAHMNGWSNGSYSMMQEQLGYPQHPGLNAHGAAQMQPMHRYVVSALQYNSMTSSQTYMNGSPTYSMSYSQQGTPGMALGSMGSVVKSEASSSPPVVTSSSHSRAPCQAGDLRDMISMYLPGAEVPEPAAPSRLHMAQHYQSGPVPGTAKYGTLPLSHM

No constants are given. Whether binding was seen depends on the method and setting. In cells and extracts the contact can be indirect. Some binding calls cover weakened binding; strength is not graded here.

The assay deals with FLAG-Smad3 (UniProt P84022). As to the kind of experiment: co-IP; lysates of HBECs co-transfected with Sox2-V5 and FLAG-Smad3, NETN buffer (20 mM Tris pH 8.0, 100 mM NaCl, 1 mM EDTA, 0.5% NP-40), 4°C; precipitated with anti-FLAG M2 affinity gel or with rabbit anti-Sox2 on Protein A/G beads (normal rabbit IgG as control); blots with anti-FLAG-HRP and anti-V5-HRP.

As to Sox2-V5 (from UniProt P48432 1-319), the binding result is reported as “binds”.
